No constants are given. Whether binding was seen depends on the method and setting. In cells and extracts the contact can be indirect. Here binding means that the protein was enriched with, or labelled near, the bait; the list need not be complete. Sequences can lack the tags named with a protein.
Biological target: T1, YBEY-3 × FLAG (human) (UniProt P58557)
T1 sequence: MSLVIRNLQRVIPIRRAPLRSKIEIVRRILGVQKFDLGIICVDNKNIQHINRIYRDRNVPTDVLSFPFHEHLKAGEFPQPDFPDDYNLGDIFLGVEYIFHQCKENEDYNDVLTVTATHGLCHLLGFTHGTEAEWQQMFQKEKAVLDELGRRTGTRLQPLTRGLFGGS
Assay: affinity purification with mass spectrometry; α-FLAG antibody and protein A-sepharose on mitochondrial lysates (0.5% n-dodecyl-β-D-maltoside, 20 mM Tris-HCl pH 7.5, 150 mM KCl, 4°C) of SAL001 cells expressing YBEY-3 × FLAG; parental Flp-In T-REx 293 as control; LC-MS/MS, spectral counts; YBEY:p32 stoichiometry from spectral abundance factors

uS11m, endogenous
binding: binds

Reference: PMC7515705
